Reference: US20080161309A1, “Novel Compounds” (priority 2004, published 2008)
Where a name gives a salt, the structure may show the parent alone. Some entries share one result that the patent states for a list of compounds.

Amino acid sequences for entries named in this document (tags omitted).
UniProt P23975, whole entry: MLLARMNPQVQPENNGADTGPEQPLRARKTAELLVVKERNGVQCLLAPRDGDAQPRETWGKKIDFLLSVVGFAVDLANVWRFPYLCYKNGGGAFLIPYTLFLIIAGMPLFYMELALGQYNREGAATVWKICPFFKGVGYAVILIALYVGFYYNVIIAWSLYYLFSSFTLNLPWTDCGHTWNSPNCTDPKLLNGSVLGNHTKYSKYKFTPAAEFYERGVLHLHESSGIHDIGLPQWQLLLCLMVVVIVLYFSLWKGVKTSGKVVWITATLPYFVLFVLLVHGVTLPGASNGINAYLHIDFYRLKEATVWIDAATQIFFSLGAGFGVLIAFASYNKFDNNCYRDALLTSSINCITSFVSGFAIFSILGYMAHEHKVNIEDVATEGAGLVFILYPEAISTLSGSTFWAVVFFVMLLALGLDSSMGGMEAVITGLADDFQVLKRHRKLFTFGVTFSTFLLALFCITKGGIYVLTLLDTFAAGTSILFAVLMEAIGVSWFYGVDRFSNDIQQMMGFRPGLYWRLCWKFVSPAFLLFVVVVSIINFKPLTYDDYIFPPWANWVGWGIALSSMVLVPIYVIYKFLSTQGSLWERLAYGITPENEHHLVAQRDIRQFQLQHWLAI
UniProt P31645, whole entry: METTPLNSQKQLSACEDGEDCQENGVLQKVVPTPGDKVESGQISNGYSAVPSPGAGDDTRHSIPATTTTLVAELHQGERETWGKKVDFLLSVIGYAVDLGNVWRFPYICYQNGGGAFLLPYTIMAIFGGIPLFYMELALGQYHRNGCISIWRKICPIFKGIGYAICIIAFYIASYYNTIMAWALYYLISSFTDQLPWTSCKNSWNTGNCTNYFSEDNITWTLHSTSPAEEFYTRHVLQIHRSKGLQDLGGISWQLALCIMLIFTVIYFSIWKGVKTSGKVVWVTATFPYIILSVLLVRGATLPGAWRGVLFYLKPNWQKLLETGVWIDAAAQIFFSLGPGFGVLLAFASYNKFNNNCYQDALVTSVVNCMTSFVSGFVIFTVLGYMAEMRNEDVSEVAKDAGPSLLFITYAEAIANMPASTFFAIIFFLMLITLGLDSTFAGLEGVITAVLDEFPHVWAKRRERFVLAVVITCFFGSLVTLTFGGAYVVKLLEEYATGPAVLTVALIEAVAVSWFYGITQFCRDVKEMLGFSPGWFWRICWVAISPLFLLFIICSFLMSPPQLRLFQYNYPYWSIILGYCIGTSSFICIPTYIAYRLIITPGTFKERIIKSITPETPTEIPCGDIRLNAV

Tests used:
[1] = molecular target: human noradrenaline transporter (hNET) (Homo sapiens, UniProt P23975); experiment: SPA binding, [3H]Nisoxetine to human noradrenaline transporter (NRI Ki); conditions: Cheng-Prusoff
[2] = molecular target: T1, human serotonin transporter (hSERT) (Homo sapiens, UniProt P31645); experiment: SPA binding, [3H]Citalopram to human serotonin transporter (SRI Ki); conditions: Cheng-Prusoff
T1 construct: expressed in transfected cells; host or cells: HEK-293, membranes

Structure (SMILES) | Ki [1] [nM] | Ki [2] [nM]
N#Cc1ccc(OC(c2ccccc2)C2CNCCO2)c(Cl)c1 (centres unmarked) [Example 12] | < 200 | < 200
Fc1cccc(OC(c2ccccc2)C2CNCCO2)c1F (centres unmarked) [Example 6] | – | < 200
c1ccc(C(Oc2cccc3cccnc23)C2CNCCO2)cc1 (centres unmarked) [Example 9] | < 200 | < 200
Fc1ccc(OC(c2ccccc2)C2CNCCO2)c(F)c1 (centres unmarked) [Example 7] | < 200 | < 200
COc1c(Cl)cccc1OC(c1ccccc1)C1CNCCO1 (centres unmarked) [Example 10] | < 200 | < 200
Fc1cc(Cl)ccc1OC(c1ccccc1)C1CNCCO1 (centres unmarked) [Example 5] | < 200 | < 200
COc1cc(Cl)ccc1OC(c1ccc(F)cc1)C1CNCCO1 (centres unmarked) [Example 2] | – | < 200
Fc1c(Cl)cccc1OC(c1ccccc1)C1CNCCO1 (centres unmarked) [Example 8] | < 200 | < 200

Other lines, results leading:

Ki [1] [nM] | Ki [2] [nM] | Structure (SMILES)
< 200 | < 200 | Clc1ccc(OC(c2ccccc2)C2CNCCO2)c(Cl)c1 (centres unmarked) [Example 15]
< 200 | < 200 | FC(F)(F)Oc1cccc(OC(c2ccccc2)C2CNCCO2)c1 (centres unmarked) [Example 30]
< 200 | – | COc1cc(Cl)ccc1OC(c1cccc(F)c1)C1CNCCO1 (centres unmarked) [Example 21]
< 200 | < 200 | N#Cc1cc(Cl)ccc1O[C@H](c1ccccc1)[C@H]1CNCCO1 (relative stereo) [Example 24, 5-Chloro-2-[(1R*)-(2R*)-morpholin-2-yl(phenyl)methoxy]benzonitrile hydrochloride]
< 200 | < 200 | COc1cc(F)ccc1OC(c1ccccc1)C1CNCCO1 (centres unmarked) [Example 29]
< 200 | < 200 | COc1cc(C#N)ccc1OC(c1ccccc1)C1CNCCO1 (centres unmarked) [Example 26]
< 200 | < 200 | CCOc1cc(Cl)ccc1OC(c1ccccc1)C1CNCCO1 (single isomer, unassigned) [Example 32, (2R*)-2-[(1R*)-(4-Chloro-2-ethoxyphenoxy)(phenyl)methyl]morpholine hydrochloride]
< 200 | < 200 | FC(F)(F)Oc1cc(Cl)ccc1OC(c1ccccc1)C1CNCCO1 (centres unmarked) [Example 27]
< 200 | < 200 | FC(F)Oc1cc(Cl)ccc1OC(c1ccccc1)C1CNCCO1 (centres unmarked) [Example 19]
< 200 | < 200 | Cc1cc(Cl)ccc1OC(c1ccccc1)C1CNCCO1 (centres unmarked) [Example 25]
< 200 | < 200 | Clc1ccc(Cl)c(OC(c2ccccc2)C2CNCCO2)c1 (centres unmarked) [Example 16]
